# Measured values taken from patent publication US20200407457A1 (YANTAI OBIOADC BIOMEDICAL TECHNOLOGY, published 2020).
# Amino acid sequences for entries named in this document (tags omitted). Residues count along the entry.
# UniProt O14763, residues 56-182: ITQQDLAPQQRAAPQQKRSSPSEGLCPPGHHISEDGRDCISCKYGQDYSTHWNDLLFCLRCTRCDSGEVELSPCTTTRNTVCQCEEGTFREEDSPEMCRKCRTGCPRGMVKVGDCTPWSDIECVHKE
# These are yes or no findings as the source states them, for the method shown. Some results given as binding are weak or reduced against the parent protein; the word gives no strength.
# B1: Zaptuzumab (antibody, V domains shown)
# VH: QVQLVQSGSELKKPGASVKVSCKASGYTFTDFSMNWVRQAPGQGLEWMGWINTETGEPTYADDFKGRFVFSLDTSVSTAYLQISSLKAEDTAVYYCARIDYWGQGTTVTVSS
# VL: DIVMTQSPLSLPVTPGEPASISCRSSQSLVHSNGNTYLHWYLQKPGQSPQLLIYKVSNRFSGVPDRFSGSGSGTDFTLKISRVEAEDVGVYYCFQSTHVPHTFGQGTKLEIKR
# Target: humanized recombinant protein TRAILR2 (human (printed as "humanized recombinant protein TRAILR2")) (UniProt O14763)
# Assay: ELISA, plate coated with 2 ug/ml recombinant TRAILR2
binder,measurement,value
B1,binding,binds
